Experimental data from PubChem BioAssay AID720554 (ICCB-Longwood Screening Facility, Harvard Medical School, 2013).
This is one part of the list.

assay: BmaI1 acyl-homoserine lactone synthase inhibition – biochemical, fluorescence intensity, with counterscreen (AID 720554); details: BmaI1 enzyme assay, measured here: counterscreen fluorescence % control, concentration not given here

**Q.** Which inhibition does the source give for CCSP(=O)(c1ccccc1)c1ccccc1 here?
**A.** 11%

**Q.** With CP(=O)(N1CCOCC1)N1CCOCC1 as the compound, how does the inhibition read?
**A.** 12.5%

**Q.** For CCN1C(=O)N(c2ccccc2)P(=S)(OC)c2cc3c(cc21)OCCO3 (stereo not given), which inhibition is on record?
**A.** -1%

**Q.** For CCc1ccc(OP(C)(=O)Nc2cccnc2)cc1 (stereo not given), which inhibition is on record?
**A.** 7%

**Q.** With O=P1(Nc2nncs2)C=C(c2ccccc2)SC(c2ccccc2)=C1 as the compound, how does the inhibition read?
**A.** 16.5%
